According to publication PMC8758758:
These are yes or no findings as the source states them, for the method shown. Some results given as binding are weak or reduced against the parent protein; the word gives no strength.

The chains behind the UniProt entries cited, without tags or fusion partners.
UniProt Q2YKV1: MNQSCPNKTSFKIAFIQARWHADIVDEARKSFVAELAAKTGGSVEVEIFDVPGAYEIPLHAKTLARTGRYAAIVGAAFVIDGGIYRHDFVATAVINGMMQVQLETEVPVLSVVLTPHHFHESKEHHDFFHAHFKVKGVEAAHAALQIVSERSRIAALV

Target: Gly-Gly-Gly-BLS: lumazine synthase from Brucella abortus with an N-terminal Gly-tag after TEV digestion (Brucella abortus) (UniProt Q2YKV1)
Assay: SEC; both purified

## Gly-Gly-Gly-BLS: lumazine synthase from Brucella abortus with an N-terminal Gly-tag after TEV digestion (from UniProt Q2YKV1 1-158) (enzyme)
  binding: binds
